Data on one sequence can be found in publication PMC10307831, “GATA zinc finger protein p66β promotes breast cancer cell migration by acting as a co-activator of Snail”.

Protein sequences, listed by entry. Tags and fused reporters are not part of them. Lines headed by an entry give the natural chain unless they say otherwise; changes in a name come on top.
UniProt O95863: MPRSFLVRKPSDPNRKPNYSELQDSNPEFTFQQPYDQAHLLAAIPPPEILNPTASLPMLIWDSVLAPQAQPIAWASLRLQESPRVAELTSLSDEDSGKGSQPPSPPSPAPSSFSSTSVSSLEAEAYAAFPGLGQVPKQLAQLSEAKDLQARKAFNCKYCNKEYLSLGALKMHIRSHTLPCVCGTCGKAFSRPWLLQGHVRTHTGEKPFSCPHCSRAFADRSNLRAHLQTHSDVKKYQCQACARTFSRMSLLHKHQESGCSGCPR

In one data set the target is GST-Snail-CT (UniProt O95863). Briefly: pull-down. As to conditions: Pull-down: NeutrAvidin beads, 8 h 4 C, washed in IP buffer (50 mM Tris pH 7.5, 150 mM NaCl, 1% Triton X-100); recombinant protein; protein details: N-terminal GST.
A further data set addresses GST-Snail-NT (UniProt O95863). Briefly: pull-down. Particulars: Pull-down: NeutrAvidin beads, 8 h 4 C, washed in IP buffer (50 mM Tris pH 7.5, 150 mM NaCl, 1% Triton X-100); recombinant protein; protein details: N-terminal GST.

Construct, isoform or probe ends are uncertain for at least one entry. For some assays here: No signal at the amounts used counts as a negative.

For “GGCCCCCTCCTCCCATCCGCG (double strand) [COL6A2-G-box-WT]”, the binding result is “binds” in the data set with GST-Snail-CT and “no binding” with GST-Snail-NT.
